Assay results as given in PMC6353868.
Results are given in words; binding and its absence hold for the method and conditions named. In cells and extracts the contact can be indirect. Some entries that bind do so weakly or less than the wild type.

Amino acid sequences for entries named in this document (tags omitted).
UniProt Q62318: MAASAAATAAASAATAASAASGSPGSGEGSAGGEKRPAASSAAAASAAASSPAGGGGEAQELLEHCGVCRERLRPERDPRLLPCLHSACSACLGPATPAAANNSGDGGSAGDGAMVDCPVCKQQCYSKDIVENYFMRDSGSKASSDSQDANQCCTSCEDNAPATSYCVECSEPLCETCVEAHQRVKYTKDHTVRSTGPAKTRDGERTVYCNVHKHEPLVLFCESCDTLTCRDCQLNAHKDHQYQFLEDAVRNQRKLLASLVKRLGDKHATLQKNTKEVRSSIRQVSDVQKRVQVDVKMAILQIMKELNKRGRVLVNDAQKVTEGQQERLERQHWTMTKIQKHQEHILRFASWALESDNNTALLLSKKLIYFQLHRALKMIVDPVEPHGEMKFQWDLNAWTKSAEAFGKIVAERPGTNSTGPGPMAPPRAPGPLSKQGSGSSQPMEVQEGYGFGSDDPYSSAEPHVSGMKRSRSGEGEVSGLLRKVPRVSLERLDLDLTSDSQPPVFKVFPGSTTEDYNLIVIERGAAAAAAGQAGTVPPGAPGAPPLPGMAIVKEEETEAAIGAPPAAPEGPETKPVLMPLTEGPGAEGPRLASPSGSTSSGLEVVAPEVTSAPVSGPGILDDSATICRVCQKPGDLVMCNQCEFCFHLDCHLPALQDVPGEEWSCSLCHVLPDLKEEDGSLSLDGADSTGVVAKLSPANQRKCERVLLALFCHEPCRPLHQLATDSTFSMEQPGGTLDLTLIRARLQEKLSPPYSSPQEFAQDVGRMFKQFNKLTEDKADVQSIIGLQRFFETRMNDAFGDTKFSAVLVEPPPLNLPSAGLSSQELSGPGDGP
UniProt P13864: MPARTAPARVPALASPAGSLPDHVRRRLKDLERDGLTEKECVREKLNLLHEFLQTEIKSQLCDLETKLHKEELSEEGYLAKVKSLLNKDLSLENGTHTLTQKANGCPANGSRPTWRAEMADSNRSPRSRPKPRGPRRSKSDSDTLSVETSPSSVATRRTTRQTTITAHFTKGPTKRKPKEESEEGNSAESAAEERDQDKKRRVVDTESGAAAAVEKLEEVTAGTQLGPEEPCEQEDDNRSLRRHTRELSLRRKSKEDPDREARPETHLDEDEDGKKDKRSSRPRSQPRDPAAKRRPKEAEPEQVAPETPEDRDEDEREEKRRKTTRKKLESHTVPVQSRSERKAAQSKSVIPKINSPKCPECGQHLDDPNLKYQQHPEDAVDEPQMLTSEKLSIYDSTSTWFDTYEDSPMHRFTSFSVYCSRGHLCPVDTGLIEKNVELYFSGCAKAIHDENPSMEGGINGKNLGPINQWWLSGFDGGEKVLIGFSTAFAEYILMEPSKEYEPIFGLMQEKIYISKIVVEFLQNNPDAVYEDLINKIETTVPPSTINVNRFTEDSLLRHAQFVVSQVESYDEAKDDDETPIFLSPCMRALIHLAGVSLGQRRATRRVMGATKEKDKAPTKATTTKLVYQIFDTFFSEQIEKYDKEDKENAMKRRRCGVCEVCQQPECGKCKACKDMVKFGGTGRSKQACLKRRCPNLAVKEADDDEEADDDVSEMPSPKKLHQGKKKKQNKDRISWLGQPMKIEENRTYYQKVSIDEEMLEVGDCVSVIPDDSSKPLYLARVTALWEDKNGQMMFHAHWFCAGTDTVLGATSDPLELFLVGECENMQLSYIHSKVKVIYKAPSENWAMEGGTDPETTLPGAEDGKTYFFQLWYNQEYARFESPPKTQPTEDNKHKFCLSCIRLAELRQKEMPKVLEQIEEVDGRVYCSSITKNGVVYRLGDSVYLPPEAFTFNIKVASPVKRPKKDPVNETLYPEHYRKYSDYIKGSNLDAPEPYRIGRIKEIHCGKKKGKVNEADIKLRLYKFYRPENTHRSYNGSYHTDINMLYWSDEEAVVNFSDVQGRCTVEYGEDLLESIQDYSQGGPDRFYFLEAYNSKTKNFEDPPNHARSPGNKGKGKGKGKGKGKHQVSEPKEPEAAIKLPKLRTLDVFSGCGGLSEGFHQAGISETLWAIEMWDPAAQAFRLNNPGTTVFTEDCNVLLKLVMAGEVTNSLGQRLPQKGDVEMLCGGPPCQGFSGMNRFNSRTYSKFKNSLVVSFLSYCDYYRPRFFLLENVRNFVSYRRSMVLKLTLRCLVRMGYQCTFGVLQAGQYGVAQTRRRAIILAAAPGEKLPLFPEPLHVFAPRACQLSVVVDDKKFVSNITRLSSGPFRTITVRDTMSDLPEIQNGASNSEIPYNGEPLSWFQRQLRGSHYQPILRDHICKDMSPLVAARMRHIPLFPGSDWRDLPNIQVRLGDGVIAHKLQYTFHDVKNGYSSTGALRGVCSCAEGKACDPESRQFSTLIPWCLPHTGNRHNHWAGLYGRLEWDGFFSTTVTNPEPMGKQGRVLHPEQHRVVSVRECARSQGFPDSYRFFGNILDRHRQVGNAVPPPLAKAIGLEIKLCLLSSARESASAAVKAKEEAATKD
UniProt Q02248: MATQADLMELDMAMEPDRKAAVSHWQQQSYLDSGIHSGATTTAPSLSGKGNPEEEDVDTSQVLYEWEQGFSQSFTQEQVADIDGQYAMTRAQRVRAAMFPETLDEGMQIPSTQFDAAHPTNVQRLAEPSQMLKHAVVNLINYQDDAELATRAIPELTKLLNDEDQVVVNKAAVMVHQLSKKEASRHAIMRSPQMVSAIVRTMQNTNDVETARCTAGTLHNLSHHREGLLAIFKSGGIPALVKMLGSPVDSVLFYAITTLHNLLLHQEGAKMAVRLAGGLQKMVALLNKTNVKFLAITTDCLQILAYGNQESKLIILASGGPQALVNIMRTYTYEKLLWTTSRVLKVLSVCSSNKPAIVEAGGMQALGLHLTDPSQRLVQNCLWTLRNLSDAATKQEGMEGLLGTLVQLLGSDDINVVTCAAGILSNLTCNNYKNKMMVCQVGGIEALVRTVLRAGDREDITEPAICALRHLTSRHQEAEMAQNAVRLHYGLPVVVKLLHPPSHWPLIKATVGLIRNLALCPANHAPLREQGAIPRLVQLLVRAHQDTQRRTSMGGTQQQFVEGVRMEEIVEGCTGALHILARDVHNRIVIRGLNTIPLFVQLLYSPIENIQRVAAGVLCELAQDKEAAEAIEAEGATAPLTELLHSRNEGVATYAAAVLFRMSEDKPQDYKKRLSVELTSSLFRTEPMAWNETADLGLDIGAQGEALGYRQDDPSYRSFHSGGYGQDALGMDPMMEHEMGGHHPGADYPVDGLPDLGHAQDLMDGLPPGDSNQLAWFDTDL

Assays:
[1] = target: KAP1 (mouse (endogenous in E14 mESCs)) (UniProt Q62318); test: co-IP; nuclear extract (100 µg) of shCtrl-transduced E14 YP-mESCs in CHAPS buffer (50 mM TrisHCl pH 7.5, 150 mM NaCl, 0.15% CHAPS), antibody-coupled Dynabeads (DNMT1, β-catenin or KAP1 antibody, or IgG) overnight at 4 °C, western blot; shβcat-transduced cells as control
[2] = target: DNA methyltransferase I (DNMT1) (mouse (endogenous in E14 mESCs)) (UniProt P13864); test: as above

- binding [1]: binds
- binding [2]: binds
Substance: β-catenin (from UniProt Q02248 1-781)
